## Library screen at single concentrations

From ChEMBL document CHEMBL3988442, “University of Dundee, Small-Polar-MMV Screening Library” (2021).

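Whole-parasite assay of Trypanosoma brucei over 72 hours; the read-out is not stated. Tested at 30 µM. The record gives no direction; compounds that gave an IC50 in retests scored well above the rest, so higher reads as stronger inhibition. Values scatter widely below zero; nearly all retest evidence comes from the higher of the two concentrations used. Size under these conditions: about 64,000 compounds, about 940 of them at 50% or above in at least one test.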

Each number is a percent effect as filed.
How 0% and 100% were set is not recorded. Most values in the screen are low, and negative values occur.
The compounds are a random part of those screened.

{"compound": "COc1cccc(-c2ccc3nc(C4CCN(C(C)=O)CC4)nn3c2)c1", "percent effect": 13.16}
{"compound": "Cc1nc(CN(C)C2CCN(CC3CCCC3)C2)no1", "stereo": "stereo not drawn", "percent effect": -12.49}
{"compound": "O=c1c2cnc(N3CCCC3)nc2ccn1-c1cccc(F)c1", "percent effect": -42.95}
{"compound": "CCN(CC1CC1)C(=O)NCc1nnc2n1CCC2", "percent effect": -0.7552}
{"compound": "CC(=O)c1c(F)cccc1NC1CCN(C(=O)CC(C)C)CC1", "percent effect": -41.76}
{"compound": "Cc1nn(C)c(C)c1Cc1nc(N(C)C)no1", "percent effect": 2.265}
{"compound": "CCN(CC)C(=O)c1nnsc1-c1ccccc1", "percent effect": -3.275}
{"compound": "CCc1nnc(Nc2cccc(C3CCN(C(C)=O)CC3)n2)s1", "percent effect": 10.22}
{"compound": "COc1ccc(NC(=O)Cn2nc(C)c(C)cc2=O)cc1Cl", "percent effect": -11.59}
{"compound": "[H][C@@]12CN(C(=O)COC)C[C@]1([H])OCCN2Cc1c(C)noc1C", "percent effect": -14.79}
{"compound": "CCC1(CNCc2ncc[nH]2)CCCC1", "percent effect": 25.79}
{"compound": "CCc1noc(CN(CCS(C)(=O)=O)C(C)(C)C)n1", "percent effect": -7.396}
{"compound": "O=C1NCC(CN2CCc3onc(-c4ccc(C(F)(F)F)cc4)c3C2)O1", "stereo": "stereo not drawn", "percent effect": -2.536}
{"compound": "O=C(NCC(O)COc1ccccc1)C1(c2ccc(F)cc2)CC1", "stereo": "stereo not drawn", "percent effect": -21.35}
{"compound": "Cc1ccc(C(=O)Nc2ccccc2N2CCCC2)n1C", "percent effect": -44.94}
{"compound": "O=S(=O)(NCCC(O)c1cccs1)c1ccccc1", "stereo": "stereo not drawn", "percent effect": 17.49}
{"compound": "Cc1cc(N2CCN(C(=O)c3cn(C)c4ccccc34)CC2)nc(C)n1", "percent effect": 9.004}
{"compound": "COc1ccc(N2CCN(C(=O)C(C)n3cc(Br)cn3)CC2)cc1", "stereo": "stereo not drawn", "percent effect": -2.383}
{"compound": "Cc1cc(C)cc(C2(C(=O)NC(C)Cn3ccnc3)CC2)c1", "stereo": "stereo not drawn", "percent effect": 12.97}
{"compound": "Cc1nc(-c2ccc(Cl)s2)sc1C(=O)N(C)CC(N)=O", "percent effect": -5.296}
{"compound": "COc1nccnc1N1CCN(Cc2ccc3c(c2)OCO3)C(=O)C1", "percent effect": -40.33}
{"compound": "CCOCC1CN(C(=O)CC2=CCCCC2)Cc2nnn(C)c21", "stereo": "stereo not drawn", "percent effect": -46.26}
{"compound": "O=C(NCCCn1cccn1)C1(c2cccc(Cl)c2)CC1", "percent effect": -11.04}
{"compound": "COC1CCN(S(=O)(=O)N2CCCC2c2ccco2)CC1", "stereo": "stereo not drawn", "percent effect": -75.3}
{"compound": "Cc1nn(C)c2nc(N(Cc3cnn(C)c3)C3CCCCC3)sc12", "percent effect": -54.6}
{"compound": "[H][C@@]12CO[C@@H](CNC(=O)c3nccn3C)[C@]1([H])CCN(S(C)(=O)=O)C2", "percent effect": -8.575}
{"compound": "CNc1ccc(C2CN(c3nc(C)cc(C)n3)CCO2)nc1", "stereo": "stereo not drawn", "percent effect": -9.116}
{"compound": "COc1ccc2c(c1)CC(C1CCOCC1)N(C(=O)c1ccn(C)n1)C2", "stereo": "stereo not drawn", "percent effect": 6.849}
{"compound": "CC(NC(=O)N(C)Cc1cccc(OC(F)F)c1)c1nncn1C", "stereo": "stereo not drawn", "percent effect": -22.69}
{"compound": "CC(C)(C)c1nnc(CN2CCOC(Cn3cncn3)C2)o1", "stereo": "stereo not drawn", "percent effect": -27.79}
{"compound": "CN(C)CC1(O)CCCN(C(=O)Cn2ccc3ccccc32)CC1", "stereo": "stereo not drawn", "percent effect": -30.01}
{"compound": "O=C(NC1(c2nccs2)CCCC1)c1[nH]nc(C2CC2)c1Cl", "percent effect": 5.658}
{"compound": "O=S(=O)(Nc1c(F)cccc1N1CCCC1)c1cncc(F)c1", "percent effect": -4.952}
{"compound": "Cc1cc(NC(=O)NCCc2ccccc2)n(C)n1", "percent effect": -24.87}
{"compound": "CCN1CCN(C(=O)c2cccn2Cc2ccccc2)CC1", "percent effect": -2.016}
{"compound": "Cc1[nH]c(=O)[nH]c(=O)c1CN1CCCC(CCc2ccccc2F)C1", "stereo": "stereo not drawn", "percent effect": -2.107}
{"compound": "COc1ccccc1OCC(=O)NCC(C)(O)C1CC1", "stereo": "stereo not drawn", "percent effect": 1.409}
{"compound": "COCC(=O)N1Cc2ccnn2CC(COCCN(C)C)C1.O=C(O)C(F)(F)F.O=C(O)C(F)(F)F", "stereo": "stereo not drawn", "percent effect": -18.1}
{"compound": "CC(=O)NCC(=O)N1CC[C@H](OCC2CC2)[C@@H]1Cc1cccnc1.O=C(O)C(F)(F)F", "percent effect": -17.52}
{"compound": "CN(CC(F)(F)F)C(=O)Cn1cc(NC(=O)C(C)(C)C)cn1", "percent effect": 3.267}
{"compound": "Cn1cc(-c2nnn3c2COC(CNCc2ccncc2)C3)cn1", "stereo": "stereo not drawn", "percent effect": -2.297}
{"compound": "CNc1nc(N2CCN(Cc3ccsc3)C(CCO)C2)nc2c1CCC2", "stereo": "stereo not drawn", "percent effect": 12.95}
{"compound": "O=C(O)C(F)(F)F.[H][C@]12CCC(=O)N(c3cnn(C)c3)[C@@]1([H])CCN2Cc1csc(C)n1", "percent effect": -10.95}
{"compound": "CCn1ncc2c1CCCC2NCc1ccc2c(c1)CCO2", "stereo": "stereo not drawn", "percent effect": -16.36}
{"compound": "O=C(CCc1cccs1)N1CCC(Nc2cccnn2)CC1", "percent effect": 4.567}
{"compound": "Cn1ncnc1NCc1ccccc1Cl", "percent effect": -43.89}
{"compound": "Fc1ccc(CN2CCC3(CC2)CCN(Cc2nccs2)CC3)cc1.O=C(O)C(F)(F)F.O=C(O)C(F)(F)F", "percent effect": -25.37}
{"compound": "O=C1NC2(CCN(CC(=O)N3CCOCC3)CC2)Nc2ccc(Br)cc21", "percent effect": 25.94}
{"compound": "O=C(CN1CCCS1(=O)=O)Nc1ccc(OC2CCCC2)c(Cl)c1", "percent effect": -0.9595}
{"compound": "CCc1nnc(CSc2ccccn2)o1", "percent effect": -85.99}
{"compound": "COC(=O)C1CCN(C(=O)Cn2ccc(-c3ccccc3)n2)CC1", "percent effect": 9.381}
{"compound": "Cn1cc(CN2CCC3(C2)CN(Cc2ccsc2)C3)cn1.O=C(O)C(F)(F)F.O=C(O)C(F)(F)F", "percent effect": 28.83}
{"compound": "[H][C@]12CC[C@](C(=O)N3CCC(Cn4cc(CO)nn4)CC3)(C1)C(=C)C2(C)C", "percent effect": -32.31}
{"compound": "COc1ccc(NC(=O)Cn2c(=O)nc(N)c3cc(C)sc32)cc1", "percent effect": 2.21}
{"compound": "CCOc1ccc(S(=O)(=O)NCCc2ccc(N(C)C)cc2)cc1F", "percent effect": 8.683}
{"compound": "O=C(O)C(F)(F)F.[H][C@@]12C[C@H](C(=O)NC3CCC3)[C@@]([H])(CN(CC(C)C)C1)O2", "percent effect": -44.07}
{"compound": "Cc1ccc(N2CCCC3(CCN(C(=O)CC(F)(F)F)C3)C2)nn1", "stereo": "stereo not drawn", "percent effect": -24.25}
{"compound": "Cc1nn(C)c(N(C)C)c1CNCC(O)COc1ccccc1.Cl", "stereo": "stereo not drawn", "percent effect": -54.08}

Repeated from the top, 7 entries:

compound,percent effect
COc1cccc(-c2ccc3nc(C4CCN(C(C)=O)CC4)nn3c2)c1,13.16
Cc1nc(CN(C)C2CCN(CC3CCCC3)C2)no1 (stereo not drawn),-12.49
O=c1c2cnc(N3CCCC3)nc2ccn1-c1cccc(F)c1,-42.95
CCN(CC1CC1)C(=O)NCc1nnc2n1CCC2,-0.7552
CC(=O)c1c(F)cccc1NC1CCN(C(=O)CC(C)C)CC1,-41.76
Cc1nn(C)c(C)c1Cc1nc(N(C)C)no1,2.265
CCN(CC)C(=O)c1nnsc1-c1ccccc1,-3.275